Our source for the step yield and cyclisation yield values is US5227467 (dated 1993).

Some peptides are written in HELM: one residue between dots, names in brackets for other building blocks, links after the first $.

The first series is described as follows: general procedure: solution-phase peptide synthesis; N,N-bis(2-oxo-3-oxazolidinyl)phosphorodiamidic chloride; benzotriazol-1-yloxytri. The conditions noted are these: coupling step.
Consider “Boc-Abu-Sar-MeLeu-4-F-Val-MeLeu-Ala-OBzl”, for which the step yield amounted to 84%.
The substance Boc-MeLeu-4-F-Val-MeLeu-Ala-OBzl showed a step yield of 33%.
Same read-out and setting: next, “N,O-isopropylidene-MeBmt-Abu-Sar-MeLeu-4-Fluoro-Val-MeLeu-AlaOBzl”: 64%; “Boc-D-Ala-MeLeu-MeLeu-MeVal-MeBmt-Abu-Sar-MeLeu-4-Fluoro-Val-MeLeu-AlaOBzl”: 62.5%.

Still in this series, the particulars now being: cyclisation step.
As for “PEPTIDE1{[MeBmt].[Abu].[Sar].[MeLeu].[4-fluoro-Val].[MeLeu].A.[dA].[MeLeu].[MeLeu].[MeVal]}$PEPTIDE1,PEPTIDE1,1:R1-11:R2$$$V2.0”, the cyclisation yield was 48.7%.

The same series, now with this note: late stage modification step.
The substance “H-MeBmt-Abu-Sar-MeLeu-4-Fluoro-Val-MeLeu-AlaOBzl” registered a step yield of 70.5%.
Same read-out and setting: to H-Abu-Sar-MeLeu-4-F-Val-MeLeu-Ala-OBzl belongs 95%.
In turn, “H-D-Ala-MeLeu-MeLeu-MeVal-MeBmt-Abu-Sar-MeLeu-4-Fluoro-Val-MeLeu-AlaOH” registered a step yield of 81%.
On the same count and under the same terms, to “Boc-D-Ala-MeLeu-MeLeu-MeVal-MeBmt-Abu-Sar-MeLeu-4-Fluoro-Val-MeLeu-AlaOH” belongs 65.8%.
